Results as given in publication PMC3250422.
Results are given in words; binding and its absence hold for the method and conditions named. In cells and extracts the contact can be indirect. Some results given as binding are weak or reduced against the parent protein; the word gives no strength.

The chains behind the UniProt entries cited, without tags or fusion partners.
UniProt P47746: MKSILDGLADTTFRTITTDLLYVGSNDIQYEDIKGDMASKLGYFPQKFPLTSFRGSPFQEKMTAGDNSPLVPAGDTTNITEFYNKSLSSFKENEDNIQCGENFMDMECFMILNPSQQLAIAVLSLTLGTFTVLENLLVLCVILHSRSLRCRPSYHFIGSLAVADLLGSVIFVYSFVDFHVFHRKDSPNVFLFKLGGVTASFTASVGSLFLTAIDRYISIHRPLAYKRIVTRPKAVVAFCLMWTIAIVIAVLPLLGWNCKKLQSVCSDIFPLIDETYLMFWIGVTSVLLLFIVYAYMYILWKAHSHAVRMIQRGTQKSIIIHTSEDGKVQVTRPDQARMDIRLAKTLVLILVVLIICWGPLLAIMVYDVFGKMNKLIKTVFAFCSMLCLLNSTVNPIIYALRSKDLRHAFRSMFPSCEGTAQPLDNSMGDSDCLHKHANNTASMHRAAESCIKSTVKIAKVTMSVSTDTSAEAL
UniProt Q91YI4: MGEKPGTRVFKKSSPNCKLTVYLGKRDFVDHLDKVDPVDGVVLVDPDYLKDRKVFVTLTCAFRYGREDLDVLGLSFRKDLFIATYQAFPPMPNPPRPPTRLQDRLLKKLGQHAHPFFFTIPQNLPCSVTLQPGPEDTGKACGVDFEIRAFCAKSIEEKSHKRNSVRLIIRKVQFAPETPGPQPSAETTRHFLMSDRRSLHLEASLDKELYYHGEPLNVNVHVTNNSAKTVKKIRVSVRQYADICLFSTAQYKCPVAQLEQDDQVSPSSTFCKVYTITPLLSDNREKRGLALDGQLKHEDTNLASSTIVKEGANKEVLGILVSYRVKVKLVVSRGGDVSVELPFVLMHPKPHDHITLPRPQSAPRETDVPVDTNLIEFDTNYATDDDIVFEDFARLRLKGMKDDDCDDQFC

Assays:
Experiment in all cases: co-IP; lysates (100–200 µg protein; 1% Triton, 150 mM NaCl, 1 mM EDTA, 1 mM EGTA, 50 mM Tris-Cl pH 7.4) of N2A^CB1R, N2A^CB1RDOR or N2A^CB1RDORΔ15 cells; 1 µg anti-CB1R (C-terminal) antibody on agarose beads, anti-myc or anti-FLAG overnight at 4°C; immunoblot; for arrestin3, cells starved 4 h and without or with 100 nM Hu210 for 5 min
[1] = biological target: myc-tagged delta opioid receptor (mouse) (UniProt P32300)
[2] = biological target: Flag-tagged DORΔ15 (mouse) (UniProt P32300)
[3] = biological target: Type 1 cannabinoid receptor (mouse (endogenous in Neuro2A)) (UniProt P47746)

Type 1 cannabinoid receptor (from UniProt P47746 1-473)
binding [1]: binds | binding [2]: binds

arrestin3 (from UniProt Q91YI4 1-410)
binding [3]: binds

myc-tagged delta opioid receptor (from UniProt P32300 1-372)
binding [3]: binds
